The list shows a part of the results. The main result of the screen is listed elsewhere. These columns were measured beside it and carry no call. Most of these compounds were active or inconclusive in the main read-out, so they are no random draw. Words in brackets tell the shape of the fitted curve; partial curves, single points and poor fits give uncertain potencies.

This passage reports AC50 results from PubChem BioAssay AID445 (National Center for Advancing Translational Sciences (NCATS), 2006).

A short description of this test: IkB Signaling. The note with it: ABC-DLBCL IkBa-CBG/CBR dual luciferase ratio (green luciferase fused to IkBa over red control in OCI-Ly3 lymphoma cells), 4 h; measured here: control luc red channel unless noted. The procedure, abridged:
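Curves were fitted separately to fusion (green), unfused (red) and ratio luminescence, then classed by r2, magnitude and activity. Cells: OCI-Ly3, 4 h compound plus doxycycline at 37C; 10 uM MG-132 defined full response.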
For the compound `COc1ccccc1CNC(=O)c1ccc(N2CCCC2)c(NC(=O)NCc2ccc(F)cc2)c1`, the AC50 is 100 nM [rising, full curve] [measured here: IkB-luc green channel]. For `CCCCSCCCNC(=O)C1CCN(Cc2nc(-c3cccc(Br)c3)oc2C)CC1`, the AC50 is 20 µM [falling, partial curve]. For `O=C(Cn1ncc2c3ccccc3n(Cc3ccccc3F)c2c1=O)N1CCCCC1` the value was 15.8 µM [falling, single point]; for `CCOc1ccc(CCNC(=O)c2[nH]c3cc(OC)ccc3c2Sc2ccccc2)cc1OCC`, 25.1 µM [falling, single point]; for `CC(=O)c1cc2c(cc1NC(=O)c1cnn(-c3ccc(C)cc3)c1-n1cccc1)OCO2`, 0.794 µM [rising, full curve, poor fit]. As for `CC(=O)Oc1ccc2occ(C(=O)c3cccs3)c2c1`, the AC50 is 25.1 µM [falling, single point].

For `COc1ccc(N2CCN(c3ccc(-c4nc(-c5cccc(C)c5)no4)cc3[N+](=O)[O-])CC2)cc1`, the AC50 was 3.16 µM [rising, single point]. In the case of `O=C(NCCC1=CCCCC1)c1ccc2c(c1)N(Cc1cccc(Cl)c1)C(=O)c1ccccc1S2(=O)=O`, the AC50 was 1 µM [rising, full curve].

On to `Cc1cccc2c1-c1sc(C(=O)N3CCN(c4cccc(Cl)c4)CC3)cc1CO2`, for which the AC50 is 20 µM [falling, single point].

Regarding `O=C(Cn1cnc2c(cnn2-c2ccc(F)cc2)c1=O)N1CCCc2ccccc21`, the AC50 was 31.6 µM [falling, partial curve]. For `O=C(CN1C(=O)C2(SCC(=O)N2c2ccc(F)c(F)c2)c2ccccc21)Nc1ccccc1F` (configuration not stated) the value was 31.6 µM [falling, single point]; for `CCOC(=O)c1ccc(N2C(=O)c3n[nH]c(-c4ccco4)c3C2c2ccc(F)cc2)cc1` (configuration not stated), 20 µM [falling, partial curve]. In the case of `O=C(CSc1nccn1Cc1ccc(Cl)cc1)NCc1ccccc1`, the AC50 was 0.794 µM [falling, full curve]. In the case of `Cc1ccc(C)c(C(=O)COC(=O)CCCC(=O)Nc2cc(C(F)(F)F)ccc2Cl)c1`, the AC50 is 25.1 µM [falling, partial curve]. As to `Cc1cccc(CC(=O)NCCc2csc(-c3ccc(C(F)(F)F)cc3)n2)c1`, the AC50 was 39.8 µM [falling, single point]. The same measure for `O=C(Nc1ccccc1N1CCN(c2ccc(F)cc2)CC1)C1CCCCC1`: 3.16 µM [falling, partial curve]. Consider `O=C(c1ccco1)N1CCN(C(c2ccccc2Cl)c2nnnn2Cc2cccs2)CC1` (configuration not stated), for which the AC50 is 7.94 µM [falling, partial curve]. Regarding `Cc1cc2nc(-c3cccc(NC(=O)COc4ccc(Cl)c(C)c4)c3)oc2cc1C`, the AC50 was 0.158 µM [rising, full curve].

In the case of `O=C(NCc1ccccc1)C1CCN(S(=O)(=O)c2ccc3[nH]c(=O)ccc3c2)CC1`, the AC50 was 2 µM [rising, partial curve, poor fit].

Turning to `Cc1ccc(Cl)cc1-n1ncc2c(N3CCC(C)CC3)ncnc21`, the AC50 is 39.8 µM [falling, single point]. For `Cc1ccc(CNC(=O)CN2CCN(Cc3ccc(F)cc3)C2=O)cc1` the value was 0.0794 µM [falling, full curve]; for `Cc1ccc(Cc2nc3ccccc3nc2SCC(=O)N2CCCCC2C)cc1` (configuration not stated), 39.8 µM [falling, partial curve]; for `Oc1ccc(NCc2ccc(OCc3ccccc3Cl)cc2)cc1`, 20 µM [falling, partial curve]. Turning to `COC(=O)c1cccc(NC(=O)Nc2cc(C(=O)NCc3cccc(F)c3)ccc2N2CCCC2)c1`, the AC50 is 5.01 µM [falling, partial curve].

Take `CC(=O)N1CCc2cc(Br)cc(S(=O)(=O)N3CCN(c4cccc(C)c4)C(C)C3)c21` (configuration not stated): the AC50 was 7.94 µM [falling, full curve]. The same measure for `COc1cc(C2c3c(n[nH]c3C)C(=O)N2c2ccc(Br)cc2)ccc1O` (configuration not stated): 6.31 µM [falling, partial curve]; for `Cc1nn(C(C)C(=O)NC2CCC(C)CC2)c(=O)c2cc3sccc3n12` (configuration not stated): 31.6 µM [falling, partial curve]; for `COc1ccc(CCN2CCC(CNC(=O)c3cnn(-c4ccccc4)c3C3CCN(C(=O)OC(C)(C)C)CC3)CC2)cc1`: 15.8 µM [falling, partial curve].

For `CN(C)c1ccc(CNC(=O)CCCn2ccc3cc(S(=O)(=O)N4CCCC4)ccc32)cc1`, the AC50 was 10 µM [falling, partial curve]. Regarding `COc1ccc(Cl)cc1NC(=O)c1cc(C)nn1-c1ccccc1`, the AC50 is 5.01 µM [falling, partial curve]. The same measure for `O=C(Nc1ccncc1)c1cc2ccccc2o1`: 12.6 µM [falling, partial curve]; for `CCOc1cccc(C=Nc2cc(C)cc(C)c2O)c1O`: 15.8 µM [falling, partial curve]; for `O=C(Cn1ncc2c(Cl)cccc21)NCc1cccc(Br)c1`: 0.158 µM [rising, partial curve]. Consider `Cc1ccc(N2CC(NC(=O)C(=O)c3c[nH]c4ccccc34)CC2=O)cc1` (configuration not stated), for which the AC50 is 3.98 µM [falling, single point].

Consider `COc1ccc(OC)c(-c2cc(C(=O)N3CCc4ccccc4C3)no2)c1`, for which the AC50 was 20 µM [falling, partial curve]. With `CC(C)CCNC(=O)c1ccc2c(c1)N(Cc1ccccc1F)C(=O)c1ccccc1S2=O` (configuration not stated), the AC50 was 39.8 µM [falling, single point]. For `O=C(CSc1ncn[nH]1)Nc1nnc(-c2ccccc2)s1` the value was 3.16 µM [falling, full curve]. For `Cc1cccn2c(=O)c3cc(C(=O)N(Cc4ccccc4)C(C)C)sc3nc12` the value was 25.1 µM [falling, partial curve]; for `COc1ccc2c(c1)CCc1cc(C(=O)N3CCN(c4ccc(N5CCOCC5)nn4)CC3)sc1-2`, 2.51 µM [falling, full curve]; for `Cc1cc(Cl)ccc1NC(=O)C1CCN(c2nnc(-n3c(C)ccc3C)s2)CC1`, 10 µM [falling, partial curve]. As for `COc1ccc(-c2cc(C(F)(F)F)n3nc(C(=O)NCC45CC6CC(CC(C6)C4)C5)cc3n2)cc1OC`, the AC50 is 0.00316 µM [falling, full curve, poor fit]. The same measure for `CCc1ccccc1NC(=O)CSc1nc2c(oc3ccccc32)c(=O)n1-c1ccccc1F`: 0.0316 µM [falling, full curve, poor fit]. For `Cc1ccc2ccc3cc(C(=O)N4CCN(c5ccccc5)CC4)nc3c2[nH]1` the value was 12.6 µM [falling, partial curve].

In the case of `Cc1ccc(NC(=O)C(=O)NCC(c2cccnc2)N2CCN(Cc3ccccc3)CC2)cc1` (configuration not stated), the AC50 was 31.6 µM [falling, single point]. For `CCOc1ccc(C2C(C(=O)Nc3ccc(Cl)cc3)=C(C)Nc3nc(C(F)(F)F)nn32)cc1` (configuration not stated) the value was 31.6 µM [falling, single point]; for `Fc1ccccc1-n1ncc2c1ncn1nc(Cc3ccccc3)nc21`, 0.794 µM [rising, full curve]; for `Cc1ccccc1NC(=O)CN(c1ccc(Cl)cc1Cl)S(=O)(=O)c1ccccc1`, 12.6 µM [falling, partial curve]. The same measure for `C[C@@]12C(=O)OC(=O)[C@@]1(C)[C@@H]1CC[C@@H]2O1`: 31.6 µM [falling, partial curve]; for `COc1ccc(-c2nc3sc(CCNC(=O)c4ccccc4C)c(C)n3n2)cc1`: 39.8 µM [falling, single point]; for `CC(CNC(=O)CCS(=O)(=O)c1ccc2c(c1)oc(=O)n2C)c1ccccc1` (configuration not stated): 31.6 µM [falling, single point].

As to `COc1cccc2sc(N3CCN(C(=O)CCS(=O)(=O)c4ccc(F)cc4)CC3)nc12`, the AC50 was 15.8 µM [falling, partial curve]. For `COc1ccc(C(c2nnnn2C2CCCC2)N2CCC(C)CC2)c(OC)c1` (configuration not stated), the AC50 was 15.8 µM [falling, partial curve].

Consider `Cc1ccc(CNC(=O)C(=O)NCC(c2cccnc2)N2CCN(c3ccccc3F)CC2)cc1` (configuration not stated), for which the AC50 was 15.8 µM [falling, partial curve].

As for `Cc1ccc(NC(=O)Cn2nnc(C(=O)NCCc3ccccc3)c2N)cc1C`, the AC50 is 0.2 µM [falling, partial curve, poor fit]. On to `Cc1ccc(C(=O)Nc2nc(-c3ccccc3)ns2)cc1`, for which the AC50 was 39.8 µM [rising, single point] [measured here: IkB-luc green channel]. The same measure for `CCc1ccc(C2NC(=O)c3[nH]nc(-c4cccc(OC)c4)c32)cc1` (configuration not stated): 25.1 µM [falling, single point]; for `O=C(C1CCN(S(=O)(=O)c2cccnc2)CC1)N1CCN(c2ccccc2Cl)CC1`: 39.8 µM [falling, single point]; for `COc1ccccc1CC(=O)Nc1ccc2nc(N3CCC(C)CC3)cc(C)c2c1`: 20 µM [falling, partial curve]. For `CCc1ccc(-n2c(CCC(=O)O)ccc2-c2ccc(F)cc2)cc1` the value was 20 µM [falling, partial curve].

Turning to `COc1cc2c(=O)n(CCC(=O)NCC3CCCO3)c(=O)n(CC(=O)Nc3ccc(F)cc3)c2cc1OC` (configuration not stated), the AC50 was 1 µM [falling, partial curve].

In the case of `CC(=NC1CCCCC1)C1=C(O)c2ccccc2C1=O`, the AC50 is 20 µM [falling, partial curve]. For `Cc1ccc(O)c(NC(=O)CCS(=O)(=O)c2nc(-c3ccc4c(c3)OCO4)cc(C(F)(F)F)n2)c1` the value was 6.31 µM [falling, partial curve].
